Screening data

Source: PubChem BioAssay AID912 (NCATS, 2007).

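A cell-based FRET test of anthrax lethal toxin entry, tracked through the 460 nm emission signal; the cell line is not named here. Each compound was tested as a concentration series from about 0.0005 to 40 µM. The number is the fitted AC50 of the 460 nm signal alone; lower values mean a more potent effect. A falling signal goes with compounds filed as inhibitors or cytotoxic, a rising one with activators or fluorescent compounds (inferred from the filed classes).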

Values are in µM. Common to all entries: measured here: 460 nm channel. Part of the compounds only, not a random draw; the main read-out is not listed here. A potency from a partial, single-point or poor curve is only a rough figure. The first word of each remark tells which way the curve ran; it can be opposite to the aim of the assay.

SMILES,AC50 (µM),curve as filed
COc1ccc(-n2c(Cc3cccn3C)nnc2SCC(=O)Nc2ccc(C)c(Cl)c2)cc1,10,"falling, partial curve"
C=CCN1C[C@H](C)N([C@H](c2ccc(C(=O)N(CC)CC)cc2)c2cccc(O)c2)C[C@H]1C,7.943,"falling, full curve"
Cc1cc(C(=O)CN(Cc2ccc(F)cc2)S(=O)(=O)c2ccc3c(c2)OCCO3)c(C)n1C,25.12,"falling, single point"
CC(C)c1ccc2c(c1)c(SC(C)(C)C)c(CC(C)(C)C(=O)O)n2Cc1ccc(Cl)cc1,31.62,"falling, single point"
Cc1cc(C(=O)N(C2CCCCC2)C2CCCCC2)no1,5.012,"rising, single point"
O=C(O)C[C@@H](C(=O)O)c1ccccc1[N+](=O)[O-],3.162,"falling, single point"
COc1ccc2c(c1)CC1(CN2C)C(=O)NC(=O)N(CCc2ccccc2)C1=O (stereo not drawn),0.1585,"rising, full curve, poor fit"
CC(C)(C)NC(=O)c1ccc2c(c1)N(CC(=O)N1CCN(c3ccccc3F)CC1)C(=O)C(C)(C)O2,12.59,"rising, single point"
COc1ccc(-c2nc3cncnc3n(-c3ccccc3)c2=O)cc1,12.59,"rising, partial curve"
CCc1cc(=O)oc2c(C)c(O)c(CN(C)C)cc12,10,"rising, partial curve"
Cc1c(C(=O)OCC2CCCO2)[nH]c2c1C(=O)CC(c1ccc(N(C)C)cc1)C2 (stereo not drawn),10,"falling, partial curve"
COC(=O)C1C(=O)C2=C(CC1C)NC(C)=C(C(=O)OCCOc1ccccc1)C2c1ccc(C)o1 (stereo not drawn),12.59,"falling, partial curve"
O=C1CCCC2=C1C(c1cccs1)n1nc(SCc3ccccc3)nc1N2 (stereo not drawn),31.62,"rising, single point"
CC(=O)Nc1ccc(NC(=O)CN(C)CCC#N)cc1,0.1585,"falling, full curve, poor fit"
COC(=O)c1ccc(Cn2cnc3c(cnn3-c3ccc(C)c(C)c3)c2=O)o1,3.981,"rising, single point"
CCOC(=O)CCCCC(=O)c1[nH]c(=O)[nH]c1CSc1nc(C)cc(C)n1,1.259,"rising, partial curve"
Cc1nc2cnc(N3CCN(C)CC3)nc2n(C2CC2)c1=O,31.62,"falling, single point"
CC(C)N(CCC(=O)c1ccc2ccccc2c1)Cc1ccccc1,25.12,"falling, partial curve"
ClC1=C(Cl)C2(Cl)C3C(Cl)C=CC3C1(Cl)C2(Cl)Cl (stereo not drawn),31.62,"falling, partial curve"
O=c1cccc2n1CC1CNC[C@H]2C1,25.12,"rising, single point"
O=C(O)c1ccccc1Nc1cccc(OCc2ccc3ccccc3n2)c1,12.59,"falling, partial curve"
Nc1c(S(=O)(=O)O)cc(Nc2cccc(S(N)(=O)=O)c2)c2c1C(=O)c1ccccc1C2=O,0.02512,"falling, full curve, poor fit"
CCc1cc2c(c(CC)n1)CCC(=O)N2Cc1ccc(-c2ccccc2-c2nn[nH]n2)cc1,12.59,"falling, single point"
CCCn1nnnc1NCc1cccn1C,0.631,"falling, single point"
CN(C)CCCSc1ccccc1NC(=O)/C=C\c1ccccc1,25.12,"falling, partial curve, poor fit"
Cc1ccc(S(=O)(=O)NCc2ccco2)c(C)c1C,0.05012,"falling, full curve"
O=C(CSc1nnc(-c2c[nH]c3ccccc23)o1)N(Cc1ccccc1)c1ccc(F)cc1,12.59,"falling, single point"
COc1ccc(-c2ccc(-c3nnc(-c4cc(OC)ccc4OC)o3)cc2)cc1,5.012,"rising, single point"
O=C(CCCCn1c(=O)[nH]c2ccccc2c1=O)N1CCN(c2cccc(C(F)(F)F)c2)CC1,31.62,"falling, single point"
COc1ccc(-c2coc3cc(O)ccc3c2=O)cc1,12.59,"falling, single point"
CCOC(=O)c1ccc(NS(=O)(=O)c2ccc3[nH]c(=O)[nH]c3c2)cc1,0.05012,"falling, full curve, poor fit"
CC(C)(C)NC(=O)c1cccc(NC(=O)c2ccc(NC(=O)c3ccco3)cc2)c1,19.95,"falling, partial curve, poor fit"
Cc1ccc(-c2csc3nc(C)n(-n4cccc4)c(=O)c23)o1,3.981,"falling, partial curve"
CCOc1ccc(CCNC(=O)CN(C)S(=O)(=O)c2ccc3c(c2)CCC(=O)N3)cc1OCC,0.3981,"falling, single point"
Cc1cccc(OCc2nc(C#N)c(NCc3ccc4c(c3)OCO4)o2)c1,19.95,"falling, partial curve"
O=C(c1ccncc1)N1CCC2(CCCN(c3ccccc3)C2)CC1,10,"rising, partial curve"
O=CCCCC=O,15.85,"falling, partial curve, poor fit"
N#CCCn1c(=O)c(-c2ccc(F)cc2)nc2cnc(Oc3cccc(Cl)c3)nc21,19.95,"rising, partial curve"
CC(C)NS(=O)(=O)c1ccc(OCC(=O)NCc2cccnc2)cc1,0.03162,"falling, full curve, poor fit"
COc1cc(C(Nc2ccccn2)c2ccc3ccc(C)nc3c2O)cc(OC)c1O (stereo not drawn),7.943,"falling, partial curve"
C1CCCC1,31.62,"falling, partial curve"
COc1cccc(Nc2ncc3nc(-c4ccc(F)cc4)c(=O)n(C[C@H]4CCCO4)c3n2)c1,10,"rising, partial curve"
C=CCn1c(=O)[nH]c2cc(C(=O)N3CCN(c4cccc(Cl)c4)CC3)ccc2c1=O,10,"rising, single point"
CCC(=O)N1CCN(c2ccccc2NC(=O)COc2cc(C)ccc2C(C)C)CC1,12.59,"falling, partial curve"
C=C1C(=O)O[C@H]2C[C@@]3(C)CCCC(=C)[C@@H]3C[C@H]12,12.59,"falling, partial curve"
C=Cc1cccc(C)c1,31.62,"falling, single point"
c1ccc(CN2CCC3(CCNCC3)CC2)cc1,12.59,"rising, partial curve"
CN(C)c1ccc(-n2cc3c(=O)n(C)c(=O)n(C)c3c2)cc1,0.0631,"falling, full curve"
CCOC(=O)Cc1csc(NC(=O)CSc2ncnc3c2cnn3-c2ccccc2Cl)n1,10,"falling, partial curve"
O=C(NC1CCCCC1)N(CCN1CCOCC1)Cc1cc2cc3c(cc2[nH]c1=O)OCCO3,1.259,"rising, partial curve"

Repeated from the top, 3 entries:

| SMILES | AC50 (µM) | curve as filed |
|---|---|---|
| `COc1ccc(-n2c(Cc3cccn3C)nnc2SCC(=O)Nc2ccc(C)c(Cl)c2)cc1` | 10 | falling, partial curve |
| `C=CCN1C[C@H](C)N([C@H](c2ccc(C(=O)N(CC)CC)cc2)c2cccc(O)c2)C[C@H]1C` | 7.943 | falling, full curve |
| `Cc1cc(C(=O)CN(Cc2ccc(F)cc2)S(=O)(=O)c2ccc3c(c2)OCCO3)c(C)n1C` | 25.12 | falling, single point |